This note sets out measurements from patent publication US12269902B2 (TRANSFERT PLUS, S.E.C., priority 2015, dated 2025).

The nature of this data set: general procedure: peptide synthesis; TBTU. The following applies: late stage modification step, UPLC-MS.

The same purity stands for every peptide and may come from a single statement.

In the case of KBP106-Dmg-Doxo, the “final LC-MS purity” value is listed as greater than 95%.
